± gives the standard deviation of the averaged measurements. The effect of the compound repeats well; differences between the knockouts mostly do not.
System: MDA-MB-231
Experiment: relative cell number vs DMSO control (72 h) (% of DMSO); higher = less growth inhibition (more cells)
Procedure: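 QMAP-Seq: a pool of 5 breast cancer cell lines (ZR-75-1, SKBR3, HCC-38, MDA-MB-231, BT-20), each carrying 12 doxycycline-inducible Cas9 sgRNA perturbations (11 knockouts plus non-targeting sgNT), was treated with compounds for 72 h at four 10-fold doses (10 nM-10 uM or 1 nM-1 uM range). Barcodes were amplified and sequenced, and cell number was interpolated from 293T spike-in standard curves. The result is expressed as % of the median of DMSO wells. Two biological replicates.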

COc1cc2c(Oc3ccc4[nH]c(C)cc4c3F)ncnc2cc1OCCCN1CCCC1 [Cediranib]
Details | relative cell number
sgRNA knockout: sgATF3, 10 nM | 106 ± 0.93
sgRNA knockout: sgATF3, 100 nM | 109 ± 7.9
sgRNA knockout: sgATF3, 1000 nM | 104 ± 9.5
sgRNA knockout: sgATF3, 10000 nM | 17.9 ± 4.5
sgRNA knockout: sgATF4, 10 nM | 133 ± 22
sgRNA knockout: sgATF4, 100 nM | 151 ± 35
sgRNA knockout: sgATF4, 1000 nM | 129 ± 12
sgRNA knockout: sgATF4, 10000 nM | 21.1 ± 1.3
sgRNA knockout: sgATF6, 10 nM | 110 ± 2.2
sgRNA knockout: sgATF6, 100 nM | 116 ± 9.5
sgRNA knockout: sgATF6, 1000 nM | 90.2 ± 9.5
sgRNA knockout: sgATF6, 10000 nM | 14.7 ± 1.3
sgRNA knockout: sgATG7, 10 nM | 114 ± 12
sgRNA knockout: sgATG7, 100 nM | 97 ± 6.4
sgRNA knockout: sgATG7, 1000 nM | 115 ± 7.1
sgRNA knockout: sgATG7, 10000 nM | 20.3 ± 0.28
sgRNA knockout: sgERN1, 10 nM | 125 ± 2.6
sgRNA knockout: sgERN1, 100 nM | 105 ± 19
sgRNA knockout: sgERN1, 1000 nM | 116 ± 12
sgRNA knockout: sgERN1, 10000 nM | 16 ± 2.3
sgRNA knockout: sgHSF1, 10 nM | 98.2 ± 6
sgRNA knockout: sgHSF1, 100 nM | 101 ± 23
sgRNA knockout: sgHSF1, 1000 nM | 117 ± 10
sgRNA knockout: sgHSF1, 10000 nM | 16.5 ± 4.3
sgRNA knockout: sgHSF2, 10 nM | 109 ± 7.9
sgRNA knockout: sgHSF2, 100 nM | 92.6 ± 35
sgRNA knockout: sgHSF2, 1000 nM | 104 ± 1.5
sgRNA knockout: sgHSF2, 10000 nM | 16.6 ± 1.8
sgRNA knockout: sgKEAP1, 10 nM | 105 ± 36
sgRNA knockout: sgKEAP1, 100 nM | 98.9 ± 14
sgRNA knockout: sgKEAP1, 1000 nM | 102 ± 29
sgRNA knockout: sgKEAP1, 10000 nM | 13.5 ± 7.7
sgRNA knockout: sgNFE2L2, 10 nM | 128.2 ± 0.74
sgRNA knockout: sgNFE2L2, 100 nM | 114 ± 25
sgRNA knockout: sgNFE2L2, 1000 nM | 96 ± 18
sgRNA knockout: sgNFE2L2, 10000 nM | 12.4 ± 2.2
sgRNA knockout: sgSLC35F2, 10 nM | 107 ± 2
sgRNA knockout: sgSLC35F2, 100 nM | 86.4 ± 12
sgRNA knockout: sgSLC35F2, 1000 nM | 117.2 ± 1.1
sgRNA knockout: sgSLC35F2, 10000 nM | 16.7 ± 0.41
sgRNA knockout: sgXBP1, 10 nM | 105 ± 13
sgRNA knockout: sgXBP1, 100 nM | 107 ± 3.7
sgRNA knockout: sgXBP1, 1000 nM | 90.1 ± 10
sgRNA knockout: sgXBP1, 10000 nM | 12.7 ± 5.1

CN/C(=N\CCSCc1nc[nH]c1C)NC#N [Cimetidine]
Details | relative cell number
sgRNA knockout: sgATF3, 10 nM | 120 ± 6.5
sgRNA knockout: sgATF3, 100 nM | 95.3 ± 20
sgRNA knockout: sgATF3, 1000 nM | 111 ± 7.6
sgRNA knockout: sgATF3, 10000 nM | 109 ± 14
sgRNA knockout: sgATF4, 10 nM | 119 ± 2.4
sgRNA knockout: sgATF4, 100 nM | 109 ± 34
sgRNA knockout: sgATF4, 1000 nM | 119 ± 59
sgRNA knockout: sgATF4, 10000 nM | 135 ± 19
sgRNA knockout: sgATF6, 10 nM | 78.6 ± 32
sgRNA knockout: sgATF6, 100 nM | 116 ± 18
sgRNA knockout: sgATF6, 1000 nM | 92.4 ± 9.3
sgRNA knockout: sgATF6, 10000 nM | 93.2 ± 17
sgRNA knockout: sgATG7, 10 nM | 107 ± 16
sgRNA knockout: sgATG7, 100 nM | 98.7 ± 43
sgRNA knockout: sgATG7, 1000 nM | 80.8 ± 27
sgRNA knockout: sgATG7, 10000 nM | 115 ± 15
sgRNA knockout: sgERN1, 10 nM | 123 ± 25
sgRNA knockout: sgERN1, 100 nM | 103 ± 15
sgRNA knockout: sgERN1, 1000 nM | 100 ± 17
sgRNA knockout: sgERN1, 10000 nM | 128 ± 44
sgRNA knockout: sgHSF1, 10 nM | 96.7 ± 9.4
sgRNA knockout: sgHSF1, 100 nM | 111 ± 32
sgRNA knockout: sgHSF1, 1000 nM | 89.2 ± 20
sgRNA knockout: sgHSF1, 10000 nM | 107 ± 14
sgRNA knockout: sgHSF2, 10 nM | 83.8 ± 1.1
sgRNA knockout: sgHSF2, 100 nM | 104 ± 28
sgRNA knockout: sgHSF2, 1000 nM | 91 ± 23
sgRNA knockout: sgHSF2, 10000 nM | 99.9 ± 23
sgRNA knockout: sgKEAP1, 10 nM | 116 ± 14
sgRNA knockout: sgKEAP1, 100 nM | 98.6 ± 47
sgRNA knockout: sgKEAP1, 1000 nM | 111 ± 7.4
sgRNA knockout: sgKEAP1, 10000 nM | 101 ± 8.5
sgRNA knockout: sgNFE2L2, 10 nM | 112 ± 12
sgRNA knockout: sgNFE2L2, 100 nM | 109 ± 33
sgRNA knockout: sgNFE2L2, 1000 nM | 97.5 ± 51
sgRNA knockout: sgNFE2L2, 10000 nM | 92.8 ± 24
sgRNA knockout: sgSLC35F2, 10 nM | 97.2 ± 4.1
sgRNA knockout: sgSLC35F2, 100 nM | 106 ± 6
sgRNA knockout: sgSLC35F2, 1000 nM | 90.5 ± 30
sgRNA knockout: sgSLC35F2, 10000 nM | 95.3 ± 11
sgRNA knockout: sgXBP1, 10 nM | 102 ± 3.6
sgRNA knockout: sgXBP1, 100 nM | 96.3 ± 18
sgRNA knockout: sgXBP1, 1000 nM | 83.9 ± 8.4
sgRNA knockout: sgXBP1, 10000 nM | 112 ± 5.8

O=P1(N(CCCl)CCCl)NCCCO1 (configuration not stated) [Cyclophosphamide]
Details | relative cell number
sgRNA knockout: sgATF3, 10 nM | 94.9 ± 31
sgRNA knockout: sgATF3, 100 nM | 113 ± 15
sgRNA knockout: sgATF3, 1000 nM | 109 ± 2.8
sgRNA knockout: sgATF3, 10000 nM | 106 ± 2.3
sgRNA knockout: sgATF4, 10 nM | 121 ± 34
sgRNA knockout: sgATF4, 100 nM | 78.5 ± 11
sgRNA knockout: sgATF4, 1000 nM | 116 ± 34
sgRNA knockout: sgATF4, 10000 nM | 105 ± 9.7
sgRNA knockout: sgATF6, 10 nM | 100.9 ± 0.19
sgRNA knockout: sgATF6, 100 nM | 104 ± 21
sgRNA knockout: sgATF6, 1000 nM | 92.8 ± 14
sgRNA knockout: sgATF6, 10000 nM | 92.5 ± 2.5
sgRNA knockout: sgATG7, 10 nM | 91.3 ± 7.3
sgRNA knockout: sgATG7, 100 nM | 90.7 ± 17
sgRNA knockout: sgATG7, 1000 nM | 128 ± 9.5
sgRNA knockout: sgATG7, 10000 nM | 79 ± 12
sgRNA knockout: sgERN1, 10 nM | 110 ± 21
sgRNA knockout: sgERN1, 100 nM | 95.6 ± 3
sgRNA knockout: sgERN1, 1000 nM | 131 ± 26
sgRNA knockout: sgERN1, 10000 nM | 106 ± 16
sgRNA knockout: sgHSF1, 10 nM | 118 ± 15
sgRNA knockout: sgHSF1, 100 nM | 94.5 ± 21
sgRNA knockout: sgHSF1, 1000 nM | 92.5 ± 4.5
sgRNA knockout: sgHSF1, 10000 nM | 93.9 ± 8.2
sgRNA knockout: sgHSF2, 10 nM | 102.58 ± 0.1
sgRNA knockout: sgHSF2, 100 nM | 94 ± 3.8
sgRNA knockout: sgHSF2, 1000 nM | 111 ± 18
sgRNA knockout: sgHSF2, 10000 nM | 86 ± 30
sgRNA knockout: sgKEAP1, 10 nM | 101 ± 2.7
sgRNA knockout: sgKEAP1, 100 nM | 95.9 ± 8.4
sgRNA knockout: sgKEAP1, 1000 nM | 108 ± 3.8
sgRNA knockout: sgKEAP1, 10000 nM | 99.5 ± 23
sgRNA knockout: sgNFE2L2, 10 nM | 116 ± 8.3
sgRNA knockout: sgNFE2L2, 100 nM | 98.11 ± 0.88
sgRNA knockout: sgNFE2L2, 1000 nM | 94.2 ± 18
sgRNA knockout: sgNFE2L2, 10000 nM | 103 ± 2.7
sgRNA knockout: sgSLC35F2, 10 nM | 79 ± 2.6
sgRNA knockout: sgSLC35F2, 100 nM | 113 ± 3.6
sgRNA knockout: sgSLC35F2, 1000 nM | 81.5 ± 6.2
sgRNA knockout: sgSLC35F2, 10000 nM | 81.6 ± 5.1
sgRNA knockout: sgXBP1, 10 nM | 98.7 ± 12
sgRNA knockout: sgXBP1, 100 nM | 103 ± 6.1
sgRNA knockout: sgXBP1, 1000 nM | 111 ± 2.9
sgRNA knockout: sgXBP1, 10000 nM | 103 ± 19

Reference: the supplement of paper PMC7661543
